Test results: patent US20080268507
For part of these data: The comparison behind a weaker result is the experiment's own reference, which may not be listed here. Tags and fusion partners may be left off the protein sequences shown. For part of these data: Construct, isoform or probe ends are uncertain for at least one entry.

Tests used:
[1] = test system: T1, M.CviPII (Chlorella virus NYs-1); assay: activity in cells; conditions: bisulfite sequencing, protein in cells, protein details: expressed in E. coli ER2502 from pUC-cviPIIM, only the site is given
T1 sequence (limits assumed): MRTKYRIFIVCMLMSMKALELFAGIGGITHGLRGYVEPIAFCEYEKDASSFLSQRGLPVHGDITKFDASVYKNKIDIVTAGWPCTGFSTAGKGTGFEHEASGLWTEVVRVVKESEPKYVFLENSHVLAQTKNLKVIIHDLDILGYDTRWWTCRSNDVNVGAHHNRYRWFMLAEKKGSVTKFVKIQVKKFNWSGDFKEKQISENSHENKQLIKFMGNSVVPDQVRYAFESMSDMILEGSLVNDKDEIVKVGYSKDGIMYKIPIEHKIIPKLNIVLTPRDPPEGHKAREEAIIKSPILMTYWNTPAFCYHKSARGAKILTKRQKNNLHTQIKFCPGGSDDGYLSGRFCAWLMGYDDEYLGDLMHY

[2] = test system: T2, Nt.CviPII (His+) (Chlorella virus NYs-1); assay: enzyme reaction in vitro; conditions: 37 C 1 h, purified recombinant protein, protein details: 6xHis, expressed in E. coli ER2683
T2 sequence: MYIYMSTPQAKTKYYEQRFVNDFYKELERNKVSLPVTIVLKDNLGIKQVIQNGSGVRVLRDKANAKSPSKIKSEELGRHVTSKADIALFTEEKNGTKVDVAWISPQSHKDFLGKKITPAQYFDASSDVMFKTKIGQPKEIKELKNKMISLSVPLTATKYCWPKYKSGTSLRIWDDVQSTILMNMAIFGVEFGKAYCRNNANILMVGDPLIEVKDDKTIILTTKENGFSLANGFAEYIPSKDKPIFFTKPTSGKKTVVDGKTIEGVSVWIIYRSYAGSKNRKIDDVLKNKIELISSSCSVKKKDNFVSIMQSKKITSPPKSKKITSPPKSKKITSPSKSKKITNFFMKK

ATGGCCATGT (double strand) [CCA methylation site in pUC-cviPIIM]
activity on this sequence ([1]; first C methylated): active

CCTGATCGGGAACTA (double strand) [CCCG methylation site in pUC-cviPIIM]
activity on this sequence ([1]; first two Cs methylated (relaxed specificity, overexpression)): active

CGATACGTCGTAAGATACTTGCGGCGAATGCAAGCGATAAGCTTGGCGTAATCATGGCCC (double strand) [CCG substrate]
activity on this sequence ([2]; nicked 5' of first C, run-off sequencing): active

GAACCAAAATA (double strand) [CCAA methylation site in pUC-cviPIIM]
activity on this sequence ([1]; first and second C methylated (relaxed specificity, overexpression)): active

GATACGTCGTAAGATCTTGAGGCGAATGAGCGATAAGCTTGGCGTAATCATGGACATAGCTG (double strand) [CCT substrate]
activity on this sequence ([2]; only a small amount cleaved): less active

TACGGCCGGG (double strand) [CCG methylation site in pUC-cviPIIM]
activity on this sequence ([1]; first C methylated): active
